The text below walks through data of the supplement of paper PMC6411743.

Sequences of proteins named here, by UniProt entry; tags and fusion partners are left off. A change or cut given only in a name is not applied to a line headed by its entry.
UniProt P22307: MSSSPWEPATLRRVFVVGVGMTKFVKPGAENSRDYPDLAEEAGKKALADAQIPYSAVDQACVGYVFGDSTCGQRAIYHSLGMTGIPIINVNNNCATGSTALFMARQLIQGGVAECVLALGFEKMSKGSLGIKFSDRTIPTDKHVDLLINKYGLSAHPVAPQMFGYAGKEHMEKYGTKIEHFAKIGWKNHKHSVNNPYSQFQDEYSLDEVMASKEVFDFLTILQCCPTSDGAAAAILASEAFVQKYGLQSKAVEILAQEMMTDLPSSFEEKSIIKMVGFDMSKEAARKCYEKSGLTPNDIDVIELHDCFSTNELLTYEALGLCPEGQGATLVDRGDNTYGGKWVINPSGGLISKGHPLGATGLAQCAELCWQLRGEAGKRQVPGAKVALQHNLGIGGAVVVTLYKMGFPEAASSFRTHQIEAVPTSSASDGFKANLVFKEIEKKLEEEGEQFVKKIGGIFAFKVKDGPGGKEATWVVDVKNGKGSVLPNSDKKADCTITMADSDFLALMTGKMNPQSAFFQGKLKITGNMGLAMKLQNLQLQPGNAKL
UniProt P22830: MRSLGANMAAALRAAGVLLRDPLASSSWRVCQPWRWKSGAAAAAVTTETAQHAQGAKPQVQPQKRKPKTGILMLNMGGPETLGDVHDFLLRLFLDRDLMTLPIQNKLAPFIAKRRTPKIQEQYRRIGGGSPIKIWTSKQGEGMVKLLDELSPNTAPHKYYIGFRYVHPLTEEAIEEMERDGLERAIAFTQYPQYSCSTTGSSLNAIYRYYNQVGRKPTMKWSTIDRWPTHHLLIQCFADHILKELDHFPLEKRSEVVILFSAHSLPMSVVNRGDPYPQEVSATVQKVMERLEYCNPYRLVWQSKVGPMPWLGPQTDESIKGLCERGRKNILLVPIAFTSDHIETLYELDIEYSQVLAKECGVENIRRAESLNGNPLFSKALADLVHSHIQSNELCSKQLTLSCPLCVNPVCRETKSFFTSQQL
UniProt P23526: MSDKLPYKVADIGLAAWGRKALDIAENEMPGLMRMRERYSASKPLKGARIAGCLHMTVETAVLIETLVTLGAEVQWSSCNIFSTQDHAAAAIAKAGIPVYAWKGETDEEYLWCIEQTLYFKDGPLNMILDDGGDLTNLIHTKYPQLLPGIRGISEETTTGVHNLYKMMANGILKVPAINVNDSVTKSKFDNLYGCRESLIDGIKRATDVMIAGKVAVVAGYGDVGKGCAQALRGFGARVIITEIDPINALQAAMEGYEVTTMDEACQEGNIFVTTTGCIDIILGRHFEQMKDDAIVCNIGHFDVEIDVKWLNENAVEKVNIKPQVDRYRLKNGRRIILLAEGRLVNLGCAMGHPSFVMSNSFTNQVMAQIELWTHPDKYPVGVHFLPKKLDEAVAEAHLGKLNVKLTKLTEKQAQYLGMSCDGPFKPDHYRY
UniProt P35269, whole entry: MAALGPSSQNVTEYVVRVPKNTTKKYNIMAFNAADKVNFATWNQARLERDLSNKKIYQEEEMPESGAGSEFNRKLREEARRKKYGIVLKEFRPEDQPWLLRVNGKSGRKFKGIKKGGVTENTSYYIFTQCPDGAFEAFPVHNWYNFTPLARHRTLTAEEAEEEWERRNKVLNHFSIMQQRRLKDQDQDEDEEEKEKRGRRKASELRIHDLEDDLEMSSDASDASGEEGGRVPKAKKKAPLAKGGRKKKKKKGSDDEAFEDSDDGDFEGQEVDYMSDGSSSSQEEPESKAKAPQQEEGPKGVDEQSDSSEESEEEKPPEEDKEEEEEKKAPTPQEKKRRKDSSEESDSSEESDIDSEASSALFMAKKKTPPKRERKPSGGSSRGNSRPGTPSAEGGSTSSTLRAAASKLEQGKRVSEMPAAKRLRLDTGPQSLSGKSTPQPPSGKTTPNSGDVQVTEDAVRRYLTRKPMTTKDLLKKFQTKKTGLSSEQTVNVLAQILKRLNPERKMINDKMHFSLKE
UniProt P34932: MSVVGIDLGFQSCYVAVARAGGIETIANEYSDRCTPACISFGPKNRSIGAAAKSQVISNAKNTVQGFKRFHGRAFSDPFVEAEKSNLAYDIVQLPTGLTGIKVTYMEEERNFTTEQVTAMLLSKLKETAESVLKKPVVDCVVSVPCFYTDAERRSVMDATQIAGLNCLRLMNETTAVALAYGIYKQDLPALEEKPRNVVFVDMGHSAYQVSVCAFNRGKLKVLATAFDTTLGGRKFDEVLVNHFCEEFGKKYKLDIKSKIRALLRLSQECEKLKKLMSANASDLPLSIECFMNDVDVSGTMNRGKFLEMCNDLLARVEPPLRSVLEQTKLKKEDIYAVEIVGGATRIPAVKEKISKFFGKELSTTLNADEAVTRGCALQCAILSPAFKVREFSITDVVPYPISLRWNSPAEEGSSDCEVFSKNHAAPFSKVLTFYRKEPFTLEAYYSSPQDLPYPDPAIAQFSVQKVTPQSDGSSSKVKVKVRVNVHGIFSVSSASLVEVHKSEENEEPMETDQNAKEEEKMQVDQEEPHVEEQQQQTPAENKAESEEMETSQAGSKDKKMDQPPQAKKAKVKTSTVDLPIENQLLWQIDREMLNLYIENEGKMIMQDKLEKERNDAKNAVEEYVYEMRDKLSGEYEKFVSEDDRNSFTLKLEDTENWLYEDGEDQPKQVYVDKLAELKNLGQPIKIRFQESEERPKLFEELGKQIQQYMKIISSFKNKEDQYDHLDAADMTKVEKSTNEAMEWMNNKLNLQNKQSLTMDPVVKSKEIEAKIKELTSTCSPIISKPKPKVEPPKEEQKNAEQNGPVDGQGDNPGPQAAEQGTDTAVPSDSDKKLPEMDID
UniProt P33176: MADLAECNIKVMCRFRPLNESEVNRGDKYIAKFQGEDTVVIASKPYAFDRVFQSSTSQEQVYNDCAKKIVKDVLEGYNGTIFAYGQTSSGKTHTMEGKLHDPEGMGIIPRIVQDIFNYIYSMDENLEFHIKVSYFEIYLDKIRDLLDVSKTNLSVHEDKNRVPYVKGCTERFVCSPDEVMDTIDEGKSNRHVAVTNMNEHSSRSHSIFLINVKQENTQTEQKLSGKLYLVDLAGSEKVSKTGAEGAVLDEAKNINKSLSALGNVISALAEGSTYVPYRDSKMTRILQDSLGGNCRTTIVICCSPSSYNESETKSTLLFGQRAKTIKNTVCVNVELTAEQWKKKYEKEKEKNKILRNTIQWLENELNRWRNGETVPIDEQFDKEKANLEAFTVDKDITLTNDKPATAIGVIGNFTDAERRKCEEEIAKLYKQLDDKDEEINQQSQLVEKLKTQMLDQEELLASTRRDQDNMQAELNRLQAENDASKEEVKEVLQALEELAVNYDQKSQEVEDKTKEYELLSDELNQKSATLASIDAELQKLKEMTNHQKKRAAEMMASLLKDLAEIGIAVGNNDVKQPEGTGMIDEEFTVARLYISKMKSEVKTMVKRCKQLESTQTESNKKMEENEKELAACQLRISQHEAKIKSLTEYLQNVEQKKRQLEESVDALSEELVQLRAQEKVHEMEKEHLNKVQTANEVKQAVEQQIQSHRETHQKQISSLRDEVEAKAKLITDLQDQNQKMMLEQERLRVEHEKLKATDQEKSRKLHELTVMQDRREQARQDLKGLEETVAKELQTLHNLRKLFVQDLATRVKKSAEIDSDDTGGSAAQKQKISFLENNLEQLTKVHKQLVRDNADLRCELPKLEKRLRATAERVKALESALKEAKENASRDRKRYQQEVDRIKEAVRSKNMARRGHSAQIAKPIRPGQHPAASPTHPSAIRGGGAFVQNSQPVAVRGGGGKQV
UniProt P23921: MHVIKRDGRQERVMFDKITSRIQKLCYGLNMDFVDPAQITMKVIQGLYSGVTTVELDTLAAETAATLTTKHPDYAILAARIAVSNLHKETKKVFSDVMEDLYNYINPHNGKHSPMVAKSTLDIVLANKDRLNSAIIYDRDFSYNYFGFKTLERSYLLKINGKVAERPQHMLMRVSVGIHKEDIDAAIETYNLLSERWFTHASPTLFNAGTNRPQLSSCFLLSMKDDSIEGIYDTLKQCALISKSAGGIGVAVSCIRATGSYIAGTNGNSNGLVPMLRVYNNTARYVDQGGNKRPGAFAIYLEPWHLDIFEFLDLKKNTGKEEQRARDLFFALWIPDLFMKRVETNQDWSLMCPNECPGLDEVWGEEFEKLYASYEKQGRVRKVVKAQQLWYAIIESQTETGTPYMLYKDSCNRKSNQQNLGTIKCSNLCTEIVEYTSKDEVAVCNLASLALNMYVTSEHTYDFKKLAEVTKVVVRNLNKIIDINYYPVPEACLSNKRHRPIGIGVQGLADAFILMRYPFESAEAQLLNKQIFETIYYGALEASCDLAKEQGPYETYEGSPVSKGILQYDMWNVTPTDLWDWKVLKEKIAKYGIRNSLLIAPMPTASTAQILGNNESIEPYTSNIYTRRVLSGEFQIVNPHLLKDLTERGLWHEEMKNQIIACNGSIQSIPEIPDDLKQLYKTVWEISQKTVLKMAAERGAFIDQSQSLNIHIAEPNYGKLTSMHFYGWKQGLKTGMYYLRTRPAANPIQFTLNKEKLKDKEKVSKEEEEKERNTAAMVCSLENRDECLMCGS
UniProt P23743: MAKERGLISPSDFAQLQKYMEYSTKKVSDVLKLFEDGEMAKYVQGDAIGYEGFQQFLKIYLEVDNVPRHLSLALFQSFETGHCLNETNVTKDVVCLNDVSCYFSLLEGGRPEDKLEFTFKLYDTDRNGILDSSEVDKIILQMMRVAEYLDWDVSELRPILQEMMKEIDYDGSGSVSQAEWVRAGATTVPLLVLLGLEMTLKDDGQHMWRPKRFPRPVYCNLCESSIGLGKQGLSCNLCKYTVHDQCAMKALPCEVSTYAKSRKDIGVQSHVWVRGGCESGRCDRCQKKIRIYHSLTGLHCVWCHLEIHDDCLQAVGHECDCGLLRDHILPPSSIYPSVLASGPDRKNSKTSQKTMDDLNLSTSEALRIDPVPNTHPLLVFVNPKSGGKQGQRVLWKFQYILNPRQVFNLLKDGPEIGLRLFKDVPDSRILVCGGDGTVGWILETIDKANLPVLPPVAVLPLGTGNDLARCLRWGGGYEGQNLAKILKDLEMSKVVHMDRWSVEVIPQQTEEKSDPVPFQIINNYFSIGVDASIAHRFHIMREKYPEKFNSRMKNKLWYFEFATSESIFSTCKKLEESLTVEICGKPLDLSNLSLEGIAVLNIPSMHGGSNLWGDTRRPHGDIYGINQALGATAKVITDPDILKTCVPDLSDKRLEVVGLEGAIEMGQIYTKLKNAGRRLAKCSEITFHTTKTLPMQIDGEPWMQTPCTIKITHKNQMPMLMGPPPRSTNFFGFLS
UniProt P20023: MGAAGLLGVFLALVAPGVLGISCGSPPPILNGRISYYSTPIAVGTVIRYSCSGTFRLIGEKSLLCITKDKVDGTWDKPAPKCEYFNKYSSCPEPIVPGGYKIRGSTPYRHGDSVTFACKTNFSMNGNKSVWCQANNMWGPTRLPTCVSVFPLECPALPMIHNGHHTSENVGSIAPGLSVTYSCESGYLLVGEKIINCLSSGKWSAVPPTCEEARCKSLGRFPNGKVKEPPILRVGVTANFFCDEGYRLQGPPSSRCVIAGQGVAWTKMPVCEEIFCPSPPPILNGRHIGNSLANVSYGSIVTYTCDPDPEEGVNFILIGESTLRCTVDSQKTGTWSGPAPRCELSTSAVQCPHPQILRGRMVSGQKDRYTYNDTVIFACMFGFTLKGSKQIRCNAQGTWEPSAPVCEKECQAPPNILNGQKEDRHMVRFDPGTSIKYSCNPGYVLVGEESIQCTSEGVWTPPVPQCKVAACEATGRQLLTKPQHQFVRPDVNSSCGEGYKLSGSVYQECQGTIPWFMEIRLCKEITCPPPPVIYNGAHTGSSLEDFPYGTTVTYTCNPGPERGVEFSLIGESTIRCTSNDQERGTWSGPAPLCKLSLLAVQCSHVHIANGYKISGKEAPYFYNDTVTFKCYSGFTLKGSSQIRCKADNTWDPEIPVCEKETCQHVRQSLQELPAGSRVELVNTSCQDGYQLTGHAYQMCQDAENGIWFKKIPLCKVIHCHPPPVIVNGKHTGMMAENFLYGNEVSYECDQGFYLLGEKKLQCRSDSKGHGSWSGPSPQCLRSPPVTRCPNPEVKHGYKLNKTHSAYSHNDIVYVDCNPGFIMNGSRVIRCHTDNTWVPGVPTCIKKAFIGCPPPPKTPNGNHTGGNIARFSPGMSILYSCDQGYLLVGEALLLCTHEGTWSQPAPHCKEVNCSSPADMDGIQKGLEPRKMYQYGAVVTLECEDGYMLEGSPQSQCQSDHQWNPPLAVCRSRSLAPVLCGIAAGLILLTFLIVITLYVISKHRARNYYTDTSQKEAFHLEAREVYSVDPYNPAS

± gives the standard deviation of the averaged measurements. The list shows a part of the results, in another mix than the full data.

Compound in this assay: Nc1ncnc2c1ncn2[C@@H]1O[C@H](COP(=O)(O)OP(=O)(O)OP(=O)(O)O)[C@@H](O)[C@H]1O [adenosine triphosphate]
Kind of assay: NP40-soluble protein abundance relative to vehicle (solubility fold change) (ratio); higher = more soluble protein in presence of ATP. Summed up:
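Across three independent experiments, values are fold changes against the detergent-processed vehicle for each replicate, based on vsn-normalised intensities. The samples were Jurkat crude lysate treated with eight concentrations (0.1 to 10 mM) for 10 min at room temperature and then 3 min at 37 °C. Lysate was solubilised with 0.8% NP40 and benzonase, ultracentrifuged, and the supernatant analysed by TMT-labelled LC-MS/MS.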

On to CMPK1 (UniProt P30085), for which the NP40-soluble protein abundance came out at 0.972 ± 0.049 (concentration: 1mM); 0.978 ± 0.033 (concentration: 2mM); 0.924 ± 0.032 (concentration: 4mM); 1.01 ± 0.031 (concentration: 6mM); 0.94 ± 0.034 (concentration: 8mM); 0.921 ± 0.037 (concentration: 10mM).

On to SCP2 (UniProt P22307), for which the NP40-soluble protein abundance amounted to 0.9333 ± 0.0015 (concentration: 1mM); 0.969 ± 0.013 (concentration: 2mM); 0.931 ± 0.011 (concentration: 4mM); 0.941 ± 0.028 (concentration: 6mM); 0.914 ± 0.024 (concentration: 8mM); 0.911 ± 0.035 (concentration: 10mM).

Consider ECHS1 (UniProt P30084), for which the NP40-soluble protein abundance reads like this: (concentration: 1mM) 0.987 ± 0.021; (concentration: 2mM) 0.984 ± 0.019; (concentration: 4mM) 0.935 ± 0.032; (concentration: 6mM) 1.02 ± 0.016; (concentration: 8mM) 0.94 ± 0.029; (concentration: 10mM) 0.937 ± 0.027.

For the target ERP29 (UniProt P30040), the NP40-soluble protein abundance by setting is: (concentration: 1mM) 0.947 ± 0.035; (concentration: 2mM) 0.945 ± 0.011; (concentration: 4mM) 0.914 ± 0.016; (concentration: 6mM) 0.9321 ± 0.0062; (concentration: 8mM) 0.906 ± 0.011; (concentration: 10mM) 0.893 ± 0.024.

For UniProt P22830 and related entries, the NP40-soluble protein abundance (concentration: 1mM) is 1.06 ± 0.051; the NP40-soluble protein abundance (concentration: 2mM) amounted to 1.01 ± 0.06; the NP40-soluble protein abundance (concentration: 4mM) came out at 1.01 ± 0.066; the NP40-soluble protein abundance (concentration: 6mM) stood at 0.968 ± 0.087; the NP40-soluble protein abundance (concentration: 8mM) came out at 1.01 ± 0.064; the NP40-soluble protein abundance (concentration: 10mM) was 0.993 ± 0.053.

For the target TAL1 (UniProt P17542), the NP40-soluble protein abundance (concentration: 1mM) is 0.975 ± 0.17; the NP40-soluble protein abundance (concentration: 2mM) came out at 0.892 ± 0.083; the NP40-soluble protein abundance (concentration: 4mM) is 0.901 ± 0.075; the NP40-soluble protein abundance (concentration: 6mM) turned out to be 0.885 ± 0.12; the NP40-soluble protein abundance (concentration: 8mM) is 0.801 ± 0.05; the NP40-soluble protein abundance (concentration: 10mM) worked out at 0.799 ± 0.1.

Take UniProt P20701 and related entries: the NP40-soluble protein abundance is, setting by setting: (concentration: 1mM) 0.9695 ± 0.0081; (concentration: 2mM) 0.986 ± 0.034; (concentration: 4mM) 0.946 ± 0.036; (concentration: 6mM) 0.94 ± 0.012; (concentration: 8mM) 0.934 ± 0.054; (concentration: 10mM) 0.945 ± 0.015.

As for AHCY (UniProt P23526), the NP40-soluble protein abundance reads like this: (concentration: 1mM) 0.984 ± 0.074; (concentration: 2mM) 0.962 ± 0.07; (concentration: 4mM) 0.949 ± 0.051; (concentration: 6mM) 0.929 ± 0.095; (concentration: 8mM) 0.976 ± 0.051; (concentration: 10mM) 0.954 ± 0.063.

Turning to GTF2F1 (UniProt P35269), the NP40-soluble protein abundance amounted to 0.953 ± 0.056 (concentration: 1mM); 0.95 ± 0.0098 (concentration: 2mM); 0.912 ± 0.02 (concentration: 4mM); 0.985 ± 0.049 (concentration: 6mM); 0.907 ± 0.033 (concentration: 8mM); 0.915 ± 0.028 (concentration: 10mM).

For HSPA4 (UniProt P34932), the NP40-soluble protein abundance was determined as 0.96 ± 0.012 (concentration: 1mM); 0.9528 ± 0.0094 (concentration: 2mM); 0.9223 ± 0.0032 (concentration: 4mM); 0.949 ± 0.017 (concentration: 6mM); 0.913 ± 0.014 (concentration: 8mM); 0.925 ± 0.026 (concentration: 10mM).

Take PSMB8 (UniProt P28062): the NP40-soluble protein abundance turned out to be 0.933 ± 0.063 (concentration: 1mM); 0.912 ± 0.027 (concentration: 2mM); 0.9009 ± 0.0072 (concentration: 4mM); 0.84 ± 0.0097 (concentration: 6mM); 0.949 ± 0.035 (concentration: 8mM); 0.943 ± 0.046 (concentration: 10mM).

Regarding UniProt P23511 and related entries, the NP40-soluble protein abundance was 0.908 ± 0.045 (concentration: 1mM); 0.917 ± 0.011 (concentration: 2mM); 0.882 ± 0.034 (concentration: 4mM); 0.988 ± 0.023 (concentration: 6mM); 0.881 ± 0.051 (concentration: 8mM); 0.88 ± 0.056 (concentration: 10mM).

UniProt P19174-2|P19174: the NP40-soluble protein abundance (concentration: 1mM) is 0.998 ± 0.082; the NP40-soluble protein abundance (concentration: 2mM) was determined as 0.967 ± 0.073; the NP40-soluble protein abundance (concentration: 4mM) was 0.959 ± 0.072; the NP40-soluble protein abundance (concentration: 6mM) came to 0.911 ± 0.1; the NP40-soluble protein abundance (concentration: 8mM) worked out at 0.994 ± 0.065; the NP40-soluble protein abundance (concentration: 10mM) stood at 0.955 ± 0.056.

KIF5B (UniProt P33176): the NP40-soluble protein abundance came to 0.967 ± 0.057 (concentration: 1mM); 0.96 ± 0.019 (concentration: 2mM); 0.943 ± 0.016 (concentration: 4mM); 0.994 ± 0.038 (concentration: 6mM); 0.943 ± 0.019 (concentration: 8mM); 0.936 ± 0.029 (concentration: 10mM).

Turning to RRM1 (UniProt P23921), the NP40-soluble protein abundance by setting is: (concentration: 1mM) 1.03 ± 0.18; (concentration: 2mM) 0.982 ± 0.13; (concentration: 4mM) 0.965 ± 0.12; (concentration: 6mM) 0.853 ± 0.16; (concentration: 8mM) 1.01 ± 0.062; (concentration: 10mM) 0.953 ± 0.065.

In the case of DGKA (UniProt P23743), the NP40-soluble protein abundance was 1.16 ± 0.13 (concentration: 1mM); 1.12 ± 0.094 (concentration: 2mM); 1.09 ± 0.1 (concentration: 4mM); 1.06 ± 0.13 (concentration: 6mM); 1.14 ± 0.075 (concentration: 8mM); 1.08 ± 0.067 (concentration: 10mM).

UniProt P20023 and related entries: the NP40-soluble protein abundance is 0.996 ± 0.096 (concentration: 1mM); 1.02 ± 0.059 (concentration: 2mM); 1.06 ± 0.057 (concentration: 4mM); 1.04 ± 0.075 (concentration: 6mM); 0.962 ± 0.016 (concentration: 8mM); 0.965 ± 0.096 (concentration: 10mM).
